# Measurements reported in PubChem BioAssay AID1224826 (NIAID, 2016)
# Aim: 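Genes that change LPS-induced Tnf promoter activity in mouse macrophages when knocked down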 (primary screen)
# Cell system: RAW264.7 G9 macrophages from mouse bearing reporters for p65 (GFP) and the Tnf promoter (mCherry)
# Knock-down reagent: siRNA pool against mouse genes, 100 nM
# Time to read-out: 16 h of LPS stimulation, after 2 days of siRNA transfection
# Challenge: bacterial lipopolysaccharide (Salmonella minnesota R595), 10 ng/ml
# Measured: 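Nuclear mCherry signal of the Tnf promoter reporter measured by imaging after background removal, scaled to each plate median and turned into robust z-scores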
# Direction: Tnf reporter robust z-score: higher = stronger Tnf promoter reporter signal after LPS
# Active means: 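a well counts as active at a score of -1.3 or below (Tlr4 knock-down control median) or above 3 (raised signal); controls and wells holding fewer than 50 cells are excluded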
# Calls: active = Tnf reporter clearly lowered or raised; inactive = no clear change in Tnf reporter
# In all, the deposit lists about 17,000 reagents; this is an unselected part. About 1,110 of them (6.6%) count as active. 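Active means lowered or raised reporter signal; replicate intensities are raw and not normalised per plate.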 Entries without a mark were called inactive. Further read-outs or replicates are left out here. Reagent sequences are not shown.
gene symbol,Tnf reporter robust z-score,fewer than 50 cells in well
Rdh1,-1.09,enough cells in well
Tex46,-0.41,enough cells in well
Slc27a2,-1.3 (active),enough cells in well
Asb5,2.72,enough cells in well
Cma1,-0.49,enough cells in well
Pcdha10,1.82,enough cells in well
Dpcd,0.68,enough cells in well
Atp6v0a2,-0.22,enough cells in well
Tmco5a,,fewer than 50 cells per well; well left out of calls
Pfkfb4,0.06,enough cells in well
Rfng,0.39,enough cells in well
Olfml2a,,fewer than 50 cells per well; well left out of calls
Or2r11,,fewer than 50 cells per well; well left out of calls
Tuba1b,-0.23,enough cells in well
A830039N20Rik,-0.68,enough cells in well
Lrrc75b,-0.44,enough cells in well
Mov10,0.87,enough cells in well
Fcgbpl1,-0.79,enough cells in well
Prkag3,0.5,enough cells in well
5330431K02Rik,,fewer than 50 cells per well; well left out of calls
Cdc27,-0.25,enough cells in well
Grik4,0.3,enough cells in well
D030056L22Rik,-0.24,enough cells in well
Mib2,,fewer than 50 cells per well; well left out of calls
Wipi2,0.43,enough cells in well
Kif13b,1.65,enough cells in well
Elp4,1.25,enough cells in well
S100a4,0.07,enough cells in well
Zfp637,1.17,enough cells in well
Gzmd,0.76,enough cells in well
Tnmd,,fewer than 50 cells per well; well left out of calls
Lancl3,0.6,enough cells in well
Zfp14,,fewer than 50 cells per well; well left out of calls
Pmel,-0.1,enough cells in well
Smarce1,-0.19,enough cells in well
B530045E10Rik,0.86,enough cells in well
Plch1,-0.77,enough cells in well
Stk11ip,-0.79,enough cells in well
Hibadh,0.99,enough cells in well
Ifna9,0.35,enough cells in well
